Experimental findings from patent US20250179023A1, “HOLOSYMMETRIC BIPHENYL DERIVATIVE, AND PREPARATION METHOD THEREFOR AND USE THEREOF” (Abbisko Therapeutics Co., Ltd., priority 2022, published 2025) are described below.

The nature of the series: in vitro. As to conditions: human, Caco-2, pH 7.4.

`CC(C)NCC(O)COc1ccc(CC(N)=O)cc1` (centres unmarked) [Atenolol, atenolol] yielded a Papp A→B at 90 min, 10 μM of 0.42 ×10⁻⁶ cm/s and a Papp B→A at 90 min, 10 μM of 0.57 ×10⁻⁶ cm/s.
